Results reported in PubChem BioAssay (NCI).
This list holds what a sample rich in hits left over. Calls of active or inactive are those of the source. No stated cut-off is given here; in the data, active means growth inhibition above about 70%; inactive means the rest.

How the values were obtained:
[1] = NCI Yeast Anticancer Drug Screen. Data for the wt2 strain (AID 169);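 further: 0% = growth of vehicle-treated yeast cultures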; settings: S. cerevisiae wt2 strain growth inhibition, active compounds read high
How it was run: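 Growth of compound-treated yeast is measured and expressed as inhibition relative to vehicle-only controls.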

[2] = NCI Yeast Anticancer Drug Screen. Data for the mlh1 strain (AID 171);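 further: 0% = growth of vehicle-treated control cultures of the same strain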; settings: S. cerevisiae mlh1 strain growth inhibition, active compounds read high
How it was run: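 Test agents were incubated with yeast bearing a defined DNA damage repair or cell cycle control alteration; values are growth inhibition normalised to vehicle-treated cultures.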

[3] = NCI Yeast Anticancer Drug Screen. Data for the sgs1 strain (AID 173);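 further: 0% = growth of vehicle-only control cultures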; settings: S. cerevisiae sgs1 mutant, active compounds read high
How it was run: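 Strain with an altered DNA repair or cell cycle pathway exposed to compound. Growth then measured. Value = inhibition versus vehicle control.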

[4] = NCI Yeast Anticancer Drug Screen. Data for the rad18 strain (AID 177); settings: S. cerevisiae rad18 mutant growth inhibition, active compounds read high
How it was run: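 DNA-repair-defective yeast; compound treatment; growth inhibition scored against vehicle.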

[5] = NCI Yeast Anticancer Drug Screen. Data for the rad52 strain (AID 147);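 further: 0% = growth of vehicle-treated control cultures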; settings: S. cerevisiae rad52 mutant growth inhibition, active compounds read high
How it was run: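 Growth of repair-deficient yeast cells was compared between compound-treated and vehicle-treated cultures to give percent inhibition.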

[6] = NCI Yeast Anticancer Drug Screen. Data for the wt1 strain (AID 149);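 further: 0% = growth of vehicle-treated wt1 cultures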; settings: S. cerevisiae wt1 strain (SPY 50644) growth inhibition, active compounds read high
How it was run: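 Growth inhibition read against vehicle controls after compound exposure of the wt1 yeast strain.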

[7] = NCI Yeast Anticancer Drug Screen. Data for the mgt1 strain (AID 153); settings: S. cerevisiae mgt1 mutant growth inhibition, active compounds read high
How it was run: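 Compounds were applied to mgt1 mutant yeast, and growth was then compared against vehicle-treated control cultures to give percent inhibition.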

[8] = NCI Yeast Anticancer Drug Screen. Data for the rad14 strain (AID 159);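 further: 0% = growth of vehicle-treated control cultures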; settings: S. cerevisiae rad14 strain growth inhibition, active compounds read high
How it was run: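 Growth inhibition vs vehicle controls; genetically altered yeast strain (DNA damage repair defect) treated with test compounds.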

[9] = NCI Yeast Anticancer Drug Screen. Data for the CLN2oe strain (AID 163);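 further: 0% = growth of vehicle-only control cultures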; settings: S. cerevisiae CLN2oe strain, active compounds read high
How it was run: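 Cells of an engineered yeast line with disturbed cell-cycle regulation are treated with compound. Inhibition of growth is then calculated relative to the vehicle-treated reference.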

[10] = NCI Yeast Anticancer Drug Screen. Data for the rad50EPP+ strain (AID 151);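 further: 0% = growth of vehicle-treated control cultures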; settings: S. cerevisiae rad50 mutant strain, active compounds read high
How it was run: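 Measured: growth inhibition of rad50EPP+ yeast. Reference: vehicle-treated controls. Screen uses strains with defined genetic alterations in DNA damage repair or cell cycle control.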

Measured: growth inhibition

COc1ccc(NC(=O)c2ccccc2Cl)cc1
inactive: [1]; at 1.2 µM -1% | [1]; at 3.7 µM -3% | [1]; at 11.0 µM -2% | [1]; at 33.0 µM -5% | [1]; at 100.0 µM -6% | [2]; at 1.2 µM 0% | [2]; at 3.7 µM 0% | [2]; at 11.0 µM 1% | [2]; at 33.0 µM 0% | [2]; at 100.0 µM 1% | [3]; at 1.2 µM -2% | [3]; at 3.7 µM -1% | [3]; at 11.0 µM -2% | [3]; at 33.0 µM 1% | [3]; at 100.0 µM 0% | [4]; at 1.2 µM -2% | [4]; at 3.7 µM -2% | [4]; at 11.0 µM -4% | [4]; at 33.0 µM -1% | [4]; at 100.0 µM 2%

Cc1cc2c(C(C)C)c(O)c(O)c(C=Nc3ccc([N+](=O)[O-])cc3)c2c(O)c1-c1c(C)cc2c(C(C)C)c(O)c(O)c(C=Nc3ccc([N+](=O)[O-])cc3)c2c1O
inactive: [5]; at 1.2 µM -2% | [5]; at 3.7 µM -3% | [5]; at 11.0 µM -8% | [5]; at 33.0 µM -11% | [5]; at 100.0 µM -16% | [6]; at 1.2 µM -2% | [6]; at 3.7 µM -3% | [6]; at 11.0 µM -2% | [6]; at 33.0 µM -3% | [6]; at 100.0 µM 0% | [7]; at 1.2 µM -2% | [7]; at 3.7 µM -4% | [7]; at 11.0 µM -4% | [7]; at 33.0 µM 12% | [7]; at 100.0 µM -3% | [8]; at 1.2 µM -4% | [8]; at 3.7 µM -3% | [8]; at 11.0 µM -9% | [8]; at 33.0 µM -9% | [8]; at 100.0 µM -14% | [9]; at 1.2 µM 2% | [9]; at 3.7 µM -11% | [9]; at 11.0 µM -8% | [9]; at 33.0 µM -29% | [9]; at 100.0 µM -36% | [1]; at 1.2 µM -1% | [1]; at 3.7 µM -2% | [1]; at 11.0 µM 0% | [1]; at 33.0 µM 0% | [1]; at 100.0 µM 3% | [2]; at 1.2 µM -2% | [2]; at 3.7 µM -2% | [2]; at 11.0 µM -4% | [2]; at 33.0 µM -11% | [2]; at 100.0 µM -11% | [3]; at 1.2 µM 1% | [3]; at 3.7 µM 1% | [3]; at 11.0 µM -1% | [3]; at 33.0 µM -3% | [3]; at 100.0 µM -1%

COC(=O)C1(NC(=O)C(CC(=O)OCc2ccccc2)NC(=O)OCc2ccccc2)CCCCCCC1 (stereo not given)
inactive: [6]; at 1.2 µM -2% | [6]; at 3.7 µM -3% | [6]; at 11.0 µM -6% | [6]; at 33.0 µM 14% | [6]; at 100.0 µM 22% | [10]; at 1.2 µM 1% | [10]; at 3.7 µM 3% | [10]; at 11.0 µM 13% | [10]; at 33.0 µM 13% | [10]; at 100.0 µM 2% | [7]; at 1.2 µM -2% | [7]; at 3.7 µM -5% | [7]; at 11.0 µM -7% | [7]; at 33.0 µM 36% | [7]; at 100.0 µM 27% | [8]; at 1.2 µM -2% | [8]; at 3.7 µM -5% | [8]; at 11.0 µM -8% | [8]; at 33.0 µM 7% | [8]; at 100.0 µM 8% | [9]; at 1.2 µM -4% | [9]; at 3.7 µM -10% | [9]; at 11.0 µM -7% | [9]; at 33.0 µM 41% | [9]; at 100.0 µM 43% | [1]; at 1.2 µM -1% | [1]; at 3.7 µM -1% | [1]; at 11.0 µM 0% | [1]; at 33.0 µM 25% | [1]; at 100.0 µM 26% | [2]; at 1.2 µM -1% | [2]; at 3.7 µM -1% | [2]; at 11.0 µM -1% | [2]; at 33.0 µM 33% | [2]; at 100.0 µM 36% | [3]; at 1.2 µM 0% | [3]; at 3.7 µM 2% | [3]; at 11.0 µM 6% | [3]; at 33.0 µM 41% | [3]; at 100.0 µM 42%

O=[N+]([O-])c1nccn1CCCNc1ccnc2cc(Cl)ccc12
inactive: [5]; at 1.2 µM -1% | [5]; at 3.7 µM 1% | [5]; at 11.0 µM 4% | [5]; at 33.0 µM 5% | [5]; at 100.0 µM 12% | [6]; at 1.2 µM 0% | [6]; at 3.7 µM -1% | [6]; at 11.0 µM -2% | [6]; at 33.0 µM -1% | [6]; at 100.0 µM -17% | [10]; at 1.2 µM -2% | [10]; at 3.7 µM -3% | [10]; at 11.0 µM 0% | [10]; at 33.0 µM 6% | [10]; at 100.0 µM 6% | [7]; at 1.2 µM -2% | [7]; at 3.7 µM -1% | [7]; at 11.0 µM -2% | [7]; at 33.0 µM -2% | [7]; at 100.0 µM -5% | [8]; at 1.2 µM -2% | [8]; at 3.7 µM -4% | [8]; at 11.0 µM -1% | [8]; at 33.0 µM -3% | [8]; at 100.0 µM 1% | [9]; at 1.2 µM -5% | [9]; at 3.7 µM -7% | [9]; at 11.0 µM -7% | [9]; at 33.0 µM -10% | [9]; at 100.0 µM -11% | [1]; at 1.2 µM -3% | [1]; at 3.7 µM -1% | [1]; at 11.0 µM -2% | [1]; at 33.0 µM -2% | [1]; at 100.0 µM -2% | [2]; at 1.2 µM -2% | [2]; at 3.7 µM -1% | [2]; at 11.0 µM 0% | [2]; at 33.0 µM -1% | [2]; at 100.0 µM 2% | [3]; at 1.2 µM 1% | [3]; at 3.7 µM 0% | [3]; at 11.0 µM 3% | [3]; at 33.0 µM 7% | [3]; at 100.0 µM 17% | [4]; at 1.2 µM 5% | [4]; at 3.7 µM 10% | [4]; at 11.0 µM 15% | [4]; at 33.0 µM 29% | [4]; at 100.0 µM 55%
